Experimental findings from PMC11908827, “PpERF17 alleviates peach fruit postharvest chilling injury under elevated CO2 by activating jasmonic acid and γ-aminobutyric acid biosynthesis” are described below.

The exact form of at least one protein or probe is not confirmed.

The series concerns PpMYC2.1. The series is described as follows: EMSA. Particulars: Chemiluminescent EMSA Kit (Beyotime); pH and temperature not stated; recombinant protein; protein details: GST (N-terminal, pGEX-4T-1); label: biotin.
“AATTACACACAATGCCACATGTCCACCTCCGGTAAT (double strand) [PpMYC2.1-PpGAD probe]”: the binding result is given as “binds”. As for “CAAAGAGTTATTAGGCACGTTGTGCCAAAACATTTA (double strand) [PpMYC2.1-PpAOS probe]”, the entry is “binds”.

Turning to “GAGAAGACAAGGGGACACATGTCCTTTGAACCCAAC (double strand) [PpMYC2.1-Pp13S-LOX probe]”, the binding result is on record as “binds”.

On to “GAGAATCTCGATTGCCACGTGTCTTATTCCAGATAA (double strand) [PpMYC2.1-PpOPR3 probe]”, for which the binding result is listed as “binds”. As for “GAGGAATGAACAACACACGTGCTTGAATCACATATT (double strand) [PpMYC2.1-PpERF17 probe]”, the entry is “binds”.
